## Assay results

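SH-SY5Y cells carrying a GLuc-SERCaMP reporter are challenged with thapsigargin, and luminescence from the secreted luciferase is read, with one incubation step lasting 4 hours. Compounds were run as a dilution series spanning about 2.6e-05 to 200 µM, mostly topping out at 38.4 µM. The number is the fitted AC50 for inhibition of the reporter signal; a lower value means a more potent compound. Calls come from curve class and activity score: actives score 40 to 100, inconclusives 1 to 39, and inactives (curve class 4) score 0.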

Values are in nM. Every entry below has the call inconclusive. These entries are mostly ones the record files as inconclusive; other results of the assay are not listed here. A potency from a partial, single-point or poor curve is only a rough figure. Some entries filed as inconclusive have a full curve. Activity scores are not listed here. An entry listed twice with the same setting is a separate test.

| # | SMILES | potency (nM) | curve |
|---|---|---|---|
| 1 | `CC(=O)c1c(O)c(C)c(O)c(Cc2c(O)c3c(c(C(=O)/C=C\c4ccccc4)c2O)OC(C)(C)C=C3)c1O` | 28183 | inhibitor, single point |
| 2 | `CCN(CC)C(=S)SSC(=S)N(CC)CC` | 50118 | inhibitor, partial curve |
| 3 | `CCOC(=O)c1ccc(O)c(O)c1` | 11220 | inhibitor, partial curve, poor fit |
| 4 | `O=c1c(-c2cccs2)nc2cnc(N3CCNCC3)nc2n1-c1ccccc1` | 8912 | inhibitor, partial curve, poor fit |
| 5 | `COc1cccc(Nc2ncc3ncc(=O)n(CCC#N)c3n2)c1` | 28183 | inhibitor, single point |
| 6 | `CCOC(=O)NC[C@H](Cc1ccc(OCCc2nc(-c3ccccc3)oc2C)cc1)N/C(C)=C\C(=O)c1ccc(C(F)(F)F)cc1` | 10000 | inhibitor, partial curve, poor fit |
| 7 | `COc1ccc(Oc2ncc3nc(-c4ccccc4)c(=O)n(C4CC4)c3n2)cc1` | 31622 | inhibitor, partial curve, poor fit |
| 8 | `CN1CCc2cc(O)cc3c2[C@H]1Cc1ccc(O)c(O)c1-3` | 6310 | inhibitor, partial curve, poor fit |
| 9 | `N[C@@H](CSS(=O)(=O)O)C(=O)O` | 11220 | inhibitor, partial curve, poor fit |
| 10 | `O=C(/C=C/c1ccc(Cl)cc1)N[C@@]12CCC(=O)[C@@H]3Oc4c(O)ccc5c4[C@@]31CCN(CC1CC1)C2C5` | 4467 | inhibitor, full curve, poor fit |
| 11 | `CCCCCCCC/C=C\CCCCCCCC(=O)NCCO` | 10000 | inhibitor, partial curve, poor fit |
| 12 | `CN1CCCCC1CCN1c2ccccc2Sc2ccc(S(C)=O)cc21` (configuration not stated) | 5623 | inhibitor, partial curve, poor fit |
| 13 | `Cc1nc(N=Nc2cc(S(=O)(=O)O)c3cc([N+](=O)[O-])cc(S(=O)(=O)O)c3c2)c(COP(=O)(O)O)c(C=O)c1O` | 31622 | inhibitor, partial curve |
| 14 | `O=C(O)c1cc(=O)c2ccccc2[nH]1` | 12589 | inhibitor, partial curve, poor fit |
| 15 | `C=CCN1C[C@@H](C)N([C@H](c2ccc(C(=O)N(CC)CC)cc2)c2cccc(OC)c2)C[C@@H]1C` | 28183 | inhibitor, single point |
| 16 | `CC(C)NCC(O)c1ccc(O)c(O)c1` (configuration not stated) | 7943 | inhibitor, partial curve, poor fit |
| 17 | `CN(C)C1CCc2[nH]c3ccc(NC(=O)c4ccc(F)cc4)cc3c2C1` (configuration not stated) | 12589 | inhibitor, partial curve, poor fit |
| 18 | `Cc1cccc(C)c1NC(=O)CN(CC(=O)O)CC(=O)O` | 31622 | inhibitor, partial curve, poor fit |
| 19 | `COCCn1c(=O)cnc2cnc(N3CCNCC3)nc21` | 7080 | inhibitor, partial curve, poor fit |
| 20 | `CN(C)C(=O)Oc1ccc[n+](C)c1` | 31622 | inhibitor, partial curve, poor fit |
| 21 | `CCN(CC)C(=S)SSC(=S)N(CC)CC` | 10000 | inhibitor, partial curve, poor fit |
| 22 | `CC(C)NCC(O)COc1ccc(COCCOC(C)C)cc1` (configuration not stated) | 31622 | inhibitor, single point |
| 23 | `CN(C)C(=O)Oc1cccc([N+](C)(C)C)c1` | 3548 | inhibitor, full curve, poor fit |
| 24 | `CN(CCc1ccc(Cl)c(Cl)c1)CC(O)COc1ccc(NS(C)(=O)=O)cc1` (configuration not stated) | 31622 | inhibitor, single point |
| 25 | `NC(N)=NCCCCN=C(N)N` | 3548 | inhibitor, full curve, poor fit |
| 26 | `CC(C)NCC(O)c1ccc(O)c(O)c1` (configuration not stated) | 3548 | inhibitor, full curve, poor fit |
| 27 | `N#CC(C#N)=C(N)/C(C#N)=C/c1cc(O)c(O)c(O)c1` | 3162 | inhibitor, partial curve, poor fit |
| 28 | `Cc1cc(-c2ccc(N=Nc3ccc4c(S(=O)(=O)O)cc(S(=O)(=O)O)c(N)c4c3O)c(C)c2)ccc1N=Nc1ccc2c(S(=O)(=O)O)cc(S(=O)(=O)O)c(N)c2c1O` | 11220 | inhibitor, partial curve, poor fit |
| 29 | `COC(=O)C1=C(C)NC(C)=C(C(=O)OCCCN2CCC(c3ccccc3)(c3ccccc3)CC2)C1c1cccc([N+](=O)[O-])c1` (configuration not stated) | 6310 | inhibitor, partial curve, poor fit |
| 30 | `CC1OC1P(=O)(O)O` (configuration not stated) | 35481 | inhibitor, partial curve, poor fit |
| 31 | `CN1[C@H](CC(=O)c2ccccc2)CCC[C@H]1C[C@H](O)c1ccccc1` | 28183 | inhibitor, single point |
| 32 | `COc1ccccc1CN1CCC2(CC1)CCN(S(=O)(=O)c1ccccc1)CC2` | 10000 | inhibitor, single point |
| 33 | `O=c1[nH]c2cc(Cl)ccc2c(O)c1-c1ccc(Oc2ccccc2)cc1` | 2239 | inhibitor, full curve, poor fit |
| 34 | `OC[C@H]1NC[C@@H](O)[C@@H](O)[C@H]1O` | 31622 | inhibitor, partial curve, poor fit |
| 35 | `Oc1ccc2c3c1O[C@H]1c4[nH]c5ccccc5c4C[C@@]4(O)C(C2)N(CC2CC2)CCC314` (some centres not stated) | 25118 | inhibitor, partial curve, poor fit |
| 36 | `Cc1[nH]c2ccc(O)cc2c1CCN` | 35481 | inhibitor, full curve |
| 37 | `Cn1cccc1C(=O)N1CCC2(CCN(C(=O)Nc3ccccc3)CC2)CC1` | 28183 | inhibitor, single point |
| 38 | `N#Cc1cc([N+](=O)[O-])c2sc(C(N)=O)[n+]([O-])c2c1` | 2818 | inhibitor, full curve, poor fit |
| 39 | `NCCOB(c1ccccc1)c1ccccc1` | 39810 | inhibitor, partial curve |
| 40 | `CN1CCc2cccc(Cl)c2CC1` | 2818 | inhibitor, full curve, poor fit |
| 41 | `CCN(CC)CCO[C@H]1CC[C@@]2(C)C(=CC[C@@H]3[C@H]2CC[C@]2(C)C(=O)CC[C@H]32)C1` | 10000 | inhibitor, partial curve, poor fit |
| 42 | `C[N+]12CCC(CC1)C(OC(=O)C(O)(c1ccccc1)c1ccccc1)C2` (configuration not stated) | 28183 | inhibitor, single point |
| 43 | `CN1CC[C@@H]2CN3CCc4cccc(c43)[C@@H]2C1` | 10000 | inhibitor, partial curve, poor fit |

The last 5 entries again:

| SMILES | potency (nM) | curve |
|---|---|---|
| `NCCOB(c1ccccc1)c1ccccc1` | 39810 | inhibitor, partial curve |
| `CN1CCc2cccc(Cl)c2CC1` | 2818 | inhibitor, full curve, poor fit |
| `CCN(CC)CCO[C@H]1CC[C@@]2(C)C(=CC[C@@H]3[C@H]2CC[C@]2(C)C(=O)CC[C@H]32)C1` | 10000 | inhibitor, partial curve, poor fit |
| `C[N+]12CCC(CC1)C(OC(=O)C(O)(c1ccccc1)c1ccccc1)C2` (configuration not stated) | 28183 | inhibitor, single point |
| `CN1CC[C@@H]2CN3CCc4cccc(c43)[C@@H]2C1` | 10000 | inhibitor, partial curve, poor fit |

The results are deposited in PubChem (AID1508630; NCATS, 2021).